These are yes or no findings as the source states them, for the method shown. In cells and extracts the contact can be indirect. Some binding calls cover weakened binding; strength is not graded here.
Target: TMEFF1 (transmembrane protein with EGF-like and two follistatin-like domains) (human (endogenous in CAOV3, OVCAR3, SKOV3)) (UniProt Q8IYR6)
Assay: co-IP; total protein of ovarian cancer cells (CAOV3, OVCAR3, SKOV3); 2 µg anti-TMEFF1 or anti-ST14 antibody, 4 °C 4 h, protein A/G PLUS-Agarose overnight at 4 °C; western blot for the other protein; IgG of the same species as negative control; both directions

Protein sequences, listed by entry. Tags and fused reporters are not part of them. Residues count along the entry.
UniProt Q8IYR6, residues 40-380: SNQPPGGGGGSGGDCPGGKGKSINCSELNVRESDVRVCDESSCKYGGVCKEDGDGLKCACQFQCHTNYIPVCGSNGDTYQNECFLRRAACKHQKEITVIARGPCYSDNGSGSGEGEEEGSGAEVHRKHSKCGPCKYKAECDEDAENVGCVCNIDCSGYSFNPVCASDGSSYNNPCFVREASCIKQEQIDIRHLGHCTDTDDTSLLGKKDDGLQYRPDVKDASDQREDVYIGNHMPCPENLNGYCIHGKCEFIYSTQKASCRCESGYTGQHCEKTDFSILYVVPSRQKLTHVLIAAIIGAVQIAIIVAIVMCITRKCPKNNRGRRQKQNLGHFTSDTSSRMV
UniProt Q9Y5Y6: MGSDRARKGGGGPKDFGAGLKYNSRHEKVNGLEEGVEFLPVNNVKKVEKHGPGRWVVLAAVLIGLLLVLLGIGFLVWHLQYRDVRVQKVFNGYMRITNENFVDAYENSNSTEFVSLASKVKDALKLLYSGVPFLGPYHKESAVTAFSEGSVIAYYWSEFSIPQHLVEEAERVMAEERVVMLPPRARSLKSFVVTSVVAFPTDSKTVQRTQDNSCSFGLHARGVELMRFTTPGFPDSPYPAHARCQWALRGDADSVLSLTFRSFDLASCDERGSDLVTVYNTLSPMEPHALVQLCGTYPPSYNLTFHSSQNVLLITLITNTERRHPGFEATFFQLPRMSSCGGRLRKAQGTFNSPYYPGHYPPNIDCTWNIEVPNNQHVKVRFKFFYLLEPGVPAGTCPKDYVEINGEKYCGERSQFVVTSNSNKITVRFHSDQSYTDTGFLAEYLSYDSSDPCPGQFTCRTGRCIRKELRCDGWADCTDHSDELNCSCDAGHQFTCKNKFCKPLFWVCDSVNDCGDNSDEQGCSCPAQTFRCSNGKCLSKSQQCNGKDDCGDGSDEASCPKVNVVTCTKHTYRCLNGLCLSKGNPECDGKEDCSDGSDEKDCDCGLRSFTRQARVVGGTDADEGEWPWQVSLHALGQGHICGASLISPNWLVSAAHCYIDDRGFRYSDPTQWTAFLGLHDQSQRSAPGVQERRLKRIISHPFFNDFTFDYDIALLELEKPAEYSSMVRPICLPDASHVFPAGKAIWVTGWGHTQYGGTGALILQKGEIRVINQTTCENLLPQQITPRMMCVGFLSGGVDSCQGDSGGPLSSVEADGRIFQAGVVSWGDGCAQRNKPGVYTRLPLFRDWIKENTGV

- binding: binds
Substance: ST14 (ST14 transmembrane serine protease matriptase) (from UniProt Q9Y5Y6 1-855)

— PMC10929089
